# Data reported in PubChem BioAssay AID743255 (National Center for Advancing Translational Sciences (NCATS), 2014).
# Chains of the proteins cited; added tags and fusions are not shown. Lines headed by an entry give the natural chain unless they say otherwise; changes in a name come on top.
# UniProt O94782: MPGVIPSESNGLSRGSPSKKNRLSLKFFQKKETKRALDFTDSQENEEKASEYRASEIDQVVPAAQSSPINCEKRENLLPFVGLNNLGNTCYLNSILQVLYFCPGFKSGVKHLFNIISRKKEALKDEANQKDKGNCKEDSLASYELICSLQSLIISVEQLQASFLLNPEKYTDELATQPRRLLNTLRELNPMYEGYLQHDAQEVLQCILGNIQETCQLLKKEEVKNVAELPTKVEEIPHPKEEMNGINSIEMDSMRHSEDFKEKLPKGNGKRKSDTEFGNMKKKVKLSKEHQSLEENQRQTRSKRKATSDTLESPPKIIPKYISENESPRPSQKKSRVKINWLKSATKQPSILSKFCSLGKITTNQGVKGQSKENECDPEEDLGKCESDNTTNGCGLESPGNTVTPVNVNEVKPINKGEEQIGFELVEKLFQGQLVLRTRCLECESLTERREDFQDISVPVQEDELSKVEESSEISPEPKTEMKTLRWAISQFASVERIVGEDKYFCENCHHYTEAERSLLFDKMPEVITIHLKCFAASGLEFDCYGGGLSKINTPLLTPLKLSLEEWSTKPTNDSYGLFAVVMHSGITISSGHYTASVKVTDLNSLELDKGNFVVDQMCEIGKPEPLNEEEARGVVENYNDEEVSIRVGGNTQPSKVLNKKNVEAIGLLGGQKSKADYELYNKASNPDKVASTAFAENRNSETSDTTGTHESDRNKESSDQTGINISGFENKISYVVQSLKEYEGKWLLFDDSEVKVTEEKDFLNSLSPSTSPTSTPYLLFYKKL
# About 910 (0.23%) of roughly 390,000 compounds were called active. Inconclusive results, whose numbers are uncertain, are shown with a selection of clear calls. Calls follow the shape of the dose curve; as a rule, active = well fitted inhibition curve with a large enough effect; inconclusive = small, poorly fitted or top-dose-only effect; inactive = no such curve, though single readings can be large or run the other way. Potencies beside an inconclusive call are fits to weak or partial responses and may not hold up.
# Target: Ubiquitin carboxyl-terminal hydrolase 1 (Homo sapiens) (UniProt O94782)
# Experiment: Inhibitors of USP1/UAF1: Primary Screen; also: nearly all actives have a fitted effect of over 60% in size
# Settings: recombinant USP1/UAF1, Ub-Rhodamine cleavage fluorescence; series mostly up to 57.1 µM
# Method in brief: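 In this screen, compounds sit with the deubiquitinase complex (1nM) for 15 min at room temperature before Ub-Rho is added at 150nM final. Fluorescence rise is then followed for 6 reads every 60 seconds.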
# Potency is read from the fitted curve at half-maximal effect.
row,SMILES,Potency
1,Cc1c(CCO)c(=O)n(-c2ccccc2)n1S(=O)(=O)c1c(Cl)cc(Cl)cc1Cl,inactive
2,CN(C(=O)c1cccc(NC(=O)Cc2cccc(NC(=O)C3CCN(C(=O)C4CCCCC4)CC3)c2)c1)C1CCC1,"inconclusive: 39.8 µM [inhibitor, partial curve, poor fit]"
3,Cc1nn(Cc2ccccc2)c(C)c1CNC(=O)[C@H](C)N=C1NS(=O)(=O)c2ccccc21,inactive
4,CCc1ccc(NC(=O)CSc2ccc3nc(-c4ccc(OC)cc4)cn3n2)cc1,"inconclusive: 39.8 µM [inhibitor, partial curve, poor fit]"
5,COc1cc(F)ccc1CN1CCC(C(=O)Nc2ccc(Oc3ccccc3)nc2)CC1,"inconclusive: 11.2 µM [inhibitor, partial curve, poor fit]"
6,C[C@@H]1CN([C@@H](C)CO)C(=O)CCCn2nncc2CO[C@@H]1CN(C)C(=O)c1cc(-c2ccccc2)on1,"inconclusive: 0.282 µM [inhibitor, full curve, poor fit]"
7,CC(C)OC(=O)[C@H]1[C@H](c2ccc(Cl)cc2)[C@@](C#N)(C(N)=O)[C@@H]2C=CC(C(N)=O)=CN21,"inconclusive: 44.7 µM [inhibitor, partial curve, poor fit]"
8,O=C(OCc1c(-c2ccccc2)ncc2ccccc12)c1ccc(Cl)cc1Cl,"inconclusive: 39.8 µM [inhibitor, partial curve, poor fit]"
9,Cc1cc(C(F)(F)F)c(C#N)c(SCC(=O)Nc2nc3cc(Br)ccc3s2)n1,"inconclusive: 15.8 µM [inhibitor, partial curve]"
10,C[C@H]1CN([C@@H](C)CO)C(=O)CCCn2nncc2CO[C@@H]1CN(C)C(=O)c1ccccc1,"inconclusive: 0.282 µM [inhibitor, full curve, poor fit]"
11,CN(C)c1ccc(C=Nc2ccc(N(C)C)cc2)cc1,"inconclusive: 28.2 µM [inhibitor, partial curve]"
12,[O-][N+]1=c2ccc(Nc3ccccc3)cc2=NC12CCCCC2,"inconclusive: 28.2 µM [inhibitor, partial curve]"
13,COc1ccc(NS(=O)(=O)c2cccc(C(=O)NNC(=O)NCCCl)c2)cc1,"inconclusive: 0.891 µM [inhibitor, full curve, poor fit]"
14,CC1(C)CC(=O)c2c(O)cc(OCC(=O)Nc3ccc(CCO)cc3)cc2O1,"inconclusive: 0.158 µM [inhibitor, full curve, poor fit]"
15,CCOc1ccc(NS(=O)(=O)c2ccc(NC(=S)NC(=O)CC(C)C)cc2)cc1,"inconclusive: 28.2 µM [inhibitor, partial curve]"
16,O=C(NCc1ccccc1Cl)C1CCN(C(=O)N2CCOc3ccccc32)CC1,"inconclusive: 31.6 µM [inhibitor, partial curve]"
17,Cc1c(NC(=O)COC(=O)c2ccccc2O)c(=O)n(-c2ccccc2)n1C,"inconclusive: 6.31 µM [inhibitor, partial curve, poor fit]"
18,Cc1ccc(CN(C(=O)COc2ccccc2[N+](=O)[O-])c2ccccn2)cc1,"inconclusive: 7.08 µM [inhibitor, partial curve, poor fit]"
19,C#CCOCCOCCOCCNc1nc(N2CCOCC2)nc(N2CCN(C(=O)[C@H](CCCCN)n3cc([C@@H](N)CO)nn3)CC2)n1,"inconclusive: 35.5 µM [inhibitor, partial curve]"
20,COC(=O)c1ccccc1NC(=O)c1cnn(-c2ccc(F)cc2)c1-n1cccc1,"inconclusive: 56.2 µM [inhibitor, single point]"

# Molecules shown so far containing a Cl atom (5):
row,SMILES,Potency
1,Cc1c(CCO)c(=O)n(-c2ccccc2)n1S(=O)(=O)c1c(Cl)cc(Cl)cc1Cl,inactive
7,CC(C)OC(=O)[C@H]1[C@H](c2ccc(Cl)cc2)[C@@](C#N)(C(N)=O)[C@@H]2C=CC(C(N)=O)=CN21,"inconclusive: 44.7 µM [inhibitor, partial curve, poor fit]"
8,O=C(OCc1c(-c2ccccc2)ncc2ccccc12)c1ccc(Cl)cc1Cl,"inconclusive: 39.8 µM [inhibitor, partial curve, poor fit]"
13,COc1ccc(NS(=O)(=O)c2cccc(C(=O)NNC(=O)NCCCl)c2)cc1,"inconclusive: 0.891 µM [inhibitor, full curve, poor fit]"
16,O=C(NCc1ccccc1Cl)C1CCN(C(=O)N2CCOc3ccccc32)CC1,"inconclusive: 31.6 µM [inhibitor, partial curve]"

# Carrying on.

row,SMILES,Potency
1,c1ccc(CCn2cnc3ccccc32)cc1,inactive
2,CCOc1ccccc1OCCCCn1c(-c2ccc(Cl)cc2)nc2ccccc2c1=O,inactive
3,CCCCN1C(=O)c2ccc(C(=O)Nc3ccc(C)c(S(=O)(=O)N(C)C)c3)cc2C1=O,"inconclusive: 2.24 µM [inhibitor, full curve, poor fit]"
4,O=C(Nc1ccc(-c2nc3ccccc3o2)c(O)c1)c1ccccc1,"inconclusive: 7.08 µM [inhibitor, partial curve, poor fit]"
5,COc1ccccc1Oc1nc(-c2ccccc2)cc(C)c1S(C)(=O)=O,"inconclusive: 44.7 µM [inhibitor, partial curve, poor fit]"
6,CC(=O)Nc1ccc(S(=O)(=O)N2CCN(c3cc(C)nc4ncnn34)CC2)cc1,inactive
7,CCOC(=O)C1=C(C)N(C[C@@H]2CC[C@@H](Cc3ccc(-c4ccccc4)cc3)O2)C(=O)NC1c1ccc(C(F)(F)F)cc1 (some centres undefined),"inconclusive: 39.8 µM [inhibitor, partial curve, poor fit]"
8,Cc1cc(=O)n(Cc2ccc(F)cc2Cl)c2c1c(C)nn2C,inactive
9,Cc1cccc2sc(NNC(=O)c3cc(-c4cccs4)nc4ccccc34)nc12,"inconclusive: 50.1 µM [inhibitor, single point]"
10,CN1CCc2c(sc(NC(=O)c3ccc([N+](=O)[O-])o3)c2C(N)=O)C1,inactive
11,CC(C)(C)/C(O)=C/c1nc2ccccc2[nH]c1=O,inactive
12,CCN(CC(=O)NCc1ccc(F)cc1)C(=O)CN1CCN(c2cc(Cl)ccc2C)CC1,"inconclusive: 44.7 µM [inhibitor, partial curve, poor fit]"
13,CC1(C)CCC(=O)N2CC[C@H]3C[C@H](OC(=O)Nc4ccc5c(c4)OCO5)C[C@@H]1[C@H]32,"inconclusive: 39.8 µM [inhibitor, partial curve, poor fit]"
14,CCN1CCN(C(=O)c2cnn(-c3ccc(F)cc3F)c2C2CCN(C(=O)OC(C)(C)C)CC2)CC1,"inconclusive: 2.51 µM [inhibitor, full curve, poor fit]"
15,CCOc1ccc(NC(=O)c2c(NCc3cccnc3)sc3c2CCC(C)C3)cc1 (centres undefined),"inconclusive: 1.12 µM [inhibitor, full curve, poor fit]"
16,O=C(COC(=O)c1ccc([N+](=O)[O-])o1)NC1CCCc2ccccc21 (centres undefined),"inconclusive: 31.6 µM [inhibitor, single point]"
17,O=C(Cc1ccc(Cl)cc1)Nc1ccccc1N1CCN(C(=O)c2ccccc2)CC1,"inconclusive: 44.7 µM [inhibitor, partial curve]"
18,CC(C)(C)OC(=O)N1CCC(c2c(C(=O)N3CCN(c4ccccc4F)CC3)cnn2-c2ccccc2Cl)CC1,"inconclusive: 5.01 µM [inhibitor, partial curve]"
19,COC(=O)C1Cc2ccccc2CN1C(=O)CCl (centres undefined),"inconclusive: 56.2 µM [inhibitor, single point]"
20,CCN(CC(=O)NCc1ccc(F)cc1)C(=O)CN1CCN(c2ccccc2OC)CC1,"inconclusive: 44.7 µM [inhibitor, partial curve, poor fit]"

row,SMILES,Potency
1,COc1ccc(-c2cc(C(=O)OCC(=O)N3CCCC3)c3ccccc3n2)cc1,"inconclusive: 11.2 µM [inhibitor, full curve, poor fit]"
2,Cc1ccccc1CNC(=O)c1cc2cc(S(=O)(=O)N3CCCCC3)ccc2n1C,"inconclusive: 10 µM [inhibitor, partial curve, poor fit]"
3,COc1ccc2sc(/C=C/c3ccccc3O)[n+](C)c2c1,"inconclusive: 31.6 µM [inhibitor, partial curve]"
4,Cc1ccc([C@H]2C[C@@H](n3cc(-c4ccc(F)cc4)nn3)[C@H](O)CN2CC2CCCCC2)cc1,"inconclusive: 0.282 µM [inhibitor, full curve, poor fit]"
5,N#CCC(=O)N/N=C/c1ccc(Cl)cc1,inactive
6,CC(C)(C)OC(=O)NCCCC[C@H](NC(=O)c1nc[nH]c1C(=O)NCc1ccccc1)C(=O)OC(C)(C)C,"inconclusive: 50.1 µM [inhibitor, partial curve, poor fit]"
7,CCOC(=O)c1c(C)oc2nc(C)nc(NCCCN3CCN(c4ccc(F)cc4)CC3)c12,inactive
8,Cc1ccc(CNC(=O)CCCn2c(=O)c3ccccc3n(Cc3ccccc3C)c2=O)cc1,inactive
9,Cc1cccc(Cn2nnc(C(=O)Nc3cc(C)ccc3C)c2N)c1,"inconclusive: 12.6 µM [inhibitor, partial curve, poor fit]"
10,Cc1cc(C)c2oc(C(=O)Nc3ccc(S(=O)(=O)N4CCC(C)CC4)cc3)cc(=O)c2c1,"inconclusive: 0.398 µM [inhibitor, full curve, poor fit]"
11,Cc1ccc(CN2CCN(C3CCN(C(=O)Nc4ccccc4C(F)(F)F)CC3)C(=O)C2=O)cc1,"inconclusive: 5.01 µM [inhibitor, partial curve]"
12,Cc1ccc2sc(NNC(=O)c3ccc4c(c3)OCCO4)nc2c1C,"inconclusive: 39.8 µM [inhibitor, single point]"
13,COc1ccc(CCn2c(C)cc(C(=O)COC(=O)c3ccc(O)cc3O)c2C)cc1,"inconclusive: 4.47 µM [inhibitor, single point]"
14,O=C(NCCCNC(=O)c1cnccn1)c1cccc(F)c1,"inconclusive: 7.08 µM [inhibitor, single point]"
15,Cc1cc(C)c2sc(NC(=O)c3ccc(S(=O)(=O)N4CCOCC4)cc3)nc2c1,inactive
16,Oc1ccc2c(c1)C1CCCC1(N1CCOCC1)O2 (centres undefined),inactive
17,Cc1ccc(NC(=O)c2cnn(-c3ccccc3)c2C)cc1C,inactive
18,CCN1CCN(Cc2ccc(NC(=O)Nc3ccc(OC)cc3)cc2)CC1,"inconclusive: 1 µM [inhibitor, full curve]"
19,Cc1ccc(NC(=O)CSC2=NN3CCCC(=O)N=C3S2)cc1Cl,"inconclusive: 5.01 µM [inhibitor, partial curve]"
